# From publication PMC11094307, “Marine-derived EGFR inhibitors: novel compounds targeting breast cancer growth and drug resistance” (Frontiers in Pharmacology, 2024)
# System: MCF-7 cells
# Assay: MTT assay, MCF-7 growth inhibition
# Type: cell-based
# Conditions: Homo sapiens, MCF7, 24 h, read-out: EC50, MCF-7 cell viability
# Experimental: The cell lines MCF-7 and A431 were cultured in Dulbecco’s Modified Eagle’s Medium (DMEM, Gibco, USA), while HL-60, H1299, and A549 cells were maintained in RPMI-1640 medium (Gibco, USA). Both mediums were enriched with 10% fetal bovine serum and 1% penicillin/streptomycin. […] All cell cultures were incubated at 37°C in an atmosphere containing 5% CO2.
# Cells in the exponential growth phase were seeded into 96-well plates and allowed to adhere overnight. Subsequently, they were treated in triplicate with various concentrations of the compounds (0, 1.56, 3.13, 6.25, 12.5, 25, 50, 100 µM), […]. After 24 h, 20 µL of Methyl-thiazolyldiphenyl-tetrazolium bromide (MTT, 5 mg/mL, Thermo Fisher Scientific) was added to each well and incubated for a minimum of 4 h. Following the incubation, the medium containing the compounds and MTT was removed from each well, and 200 µL of dimethyl sulfoxide (DMSO) was added. The plates were then shaken for 10 min at 37°C to dissolve the formazan crystals. The absorbance was measured using a microplate reader (BioTek Synergy 4) at a wavelength of 490 nm.
# All experiments were repeated at least three times, and the data are presented as mean ± standard deviation (SD). The statistical analyses were performed using Origin. […] Difference between two groups were analyzed by Student’s t test (two-sided) and significance was set at p < 0.05. […]
smiles,measurement,value
"CN[C@@H]1C[C@H]2O[C@@](C)([C@@H]1OC)n1c3ccccc3c3c4c(c5c6ccccc6n2c5c31)C(=O)NC4 [Staurosporine, reference compound]",EC50,500 ± 200 nM
